Measurements from patent CN117567617A.
Results are given in words; binding and its absence hold for the method and conditions named. Binding calls can cover weak binding; strength is not graded here.

Key:
[1] = target: CLDN18.2 (species not stated); assay: flow cytometry titration and affinity measurement (Figure 2, Table 1)
[2] = target: CLDN18.2 (species not stated); assay: flow cytometry on overexpressing cells (Figure 1)
[3] = target: CLDN18.2 (species not stated); assay: flow cytometry on stably transfected CHO cells (cell pool)

Measured: binding

B1: 全人源抗CLDN18.2抗体2A2 (CLDN-BC-2A2-hH1) (antibody, V domains shown)
VH: QVQLQQWGPGLVKPSQTLSLTCTVSGGSISSVGYYWSWIRQHPGQGLEWVGYIYYSGGTYYNPSLKSRVTISLDTSKNQFSLKLTSVTAADTAVYYCASYGSVSPYYYYYGMDVWGQGTTVTVSS
VL: DIVMTQSPSSVSASVGDRVTITCRASQGISSWLAWYQQKPGKAPNLLISAASSLQSGVPSRFSGNGSGTDFTLTISSLQPEDFASYYCQQANSFPITFGQGTRLEIK
binds: all assays above
